The list shows a part of the results. Values are raw readings; no control value is given beside them.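 First-pass screen: polymyxin B was added at a level that permeabilizes the Salmonella outer membrane while sparing the inner membrane. DMSO wells, with and without polymyxin B, defined maximum growth. Because plates differed from one another, each plate's data were ranked separately and the compounds with the lowest OD600 were carried forward as hits.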
Tested on: Salmonella enterica serovar Typhimurium SL1344
Assay: bacterial growth OD600 after 18 h with compound and polymyxin B; higher = more bacterial growth (less inhibition)
Conditions: 50 µM, Mueller-Hinton broth

Row | Compound | bacterial growth OD600 (polymyxin B 0.75 µg/mL) | bacterial growth OD600 (polymyxin B 1 µg/mL)
1 | CC(=O)c1cccc(OCc2cc(C(=O)N(C)CCc3nc4ccccc4[nH]3)no2)c1 | 0.833 | –
2 | CCN(CC)C(=O)C1CCCN(Cc2ccc3c(c2)CN(Cc2ccc(OC)c(O)c2)CCO3)C1 (centres undefined) | 0.769 | –
3 | COCCN1C(=O)CC(CC(=O)N2CCCC2c2ccc(F)cc2)(c2ccccc2OC)C1=O (centres undefined) | 0.802 | –
4 | O=C(NCc1ccc(F)cc1F)C1CCCN(C2CCN(C(=O)C3CC3)CC2)C1 (centres undefined) | – | 0.878
5 | CN(Cc1cccs1)C(=O)c1cc(COc2ccc(F)cc2F)[nH]n1 | 0.465 | –
6 | O[C@@H]1CN(C/C=C/c2ccccc2)CC[C@H]1N1CCN(c2ccccc2F)CC1 | – | 0.902
7 | CC(C)c1cc(C(=O)NCCN2Cc3ccccc3OC(c3ccccc3)C2)n(C)n1 (centres undefined) | 0.931 | –
8 | Cc1cc(C)nc(NCc2cccnc2Oc2ccccc2F)n1 | 0.765 | –
9 | COc1ccc(CN(C)C2CCCN(CCc3ccccc3)C2)c(OC)c1OC (centres undefined) | – | 0.931
10 | COc1cccc(CN2CCC(C(Cc3ccc(F)cc3F)N(C)C(=O)c3ccco3)CC2)c1OC (centres undefined) | 0.806 | –
11 | CCOC(=O)C1(CCCc2ccccc2)CCCN(C(=O)c2cccnc2C)C1 (centres undefined) | – | 1.02
12 | CCCN1CCC(NC(=O)c2ccc(OC3CCN(Cc4ccccn4)CC3)cc2)CC1 | – | 1.03
13 | CCN(Cc1cnc(C)s1)CC1CCCN(CCc2cccc(OC)c2)C1 (centres undefined) | – | 0.85
14 | COc1cccc(-c2cnc(-c3ccncc3)nc2C2CCN(C(=O)/C=C/c3cccc(F)c3)CC2)c1 | 0.074 | –
15 | OCCC1CN(Cc2cnc(-c3ccccc3)s2)CCN1Cc1ccccc1F (centres undefined) | – | 0.779
16 | COc1ccc(Cl)cc1NC(=O)CCC1CCCN(C(=O)Cc2nonc2C)C1 (centres undefined) | – | 1.07
17 | O=C(c1ccc2c(c1)OCO2)C1CCCN(C(=O)Cn2c(=O)oc3ccccc32)C1 (centres undefined) | – | 0.892
18 | COc1cc(C(=O)NC(C)Cc2ccccn2)ccc1OC1CCN(C(C)=O)CC1 (centres undefined) | – | 0.873
19 | CCn1cc(CN2CCC(c3ccc(OC)c(C)c3)Sc3cc(OC)ccc32)c(C)n1 (centres undefined) | -0.001 | –

Exported in markdown: two of the compounds above

| Row | Compound | bacterial growth OD600 (polymyxin B 0.75 µg/mL) | bacterial growth OD600 (polymyxin B 1 µg/mL) |
| --- | --- | --- | --- |
| 8 | Cc1cc(C)nc(NCc2cccnc2Oc2ccccc2F)n1 | 0.765 | – |
| 17 | O=C(c1ccc2c(c1)OCO2)C1CCCN(C(=O)Cn2c(=O)oc3ccccc32)C1 (centres undefined) | – | 0.892 |

From the supplement of paper PMC12889115
